The supplement of paper PMC6411743
± gives the standard deviation of the averaged measurements. The list shows a part of the results.

By UniProt entry, the sequences of proteins in these tests, tags left out. Where a name states a change or a piece, a line headed by the entry shows the natural chain unless it says otherwise.
UniProt P23458: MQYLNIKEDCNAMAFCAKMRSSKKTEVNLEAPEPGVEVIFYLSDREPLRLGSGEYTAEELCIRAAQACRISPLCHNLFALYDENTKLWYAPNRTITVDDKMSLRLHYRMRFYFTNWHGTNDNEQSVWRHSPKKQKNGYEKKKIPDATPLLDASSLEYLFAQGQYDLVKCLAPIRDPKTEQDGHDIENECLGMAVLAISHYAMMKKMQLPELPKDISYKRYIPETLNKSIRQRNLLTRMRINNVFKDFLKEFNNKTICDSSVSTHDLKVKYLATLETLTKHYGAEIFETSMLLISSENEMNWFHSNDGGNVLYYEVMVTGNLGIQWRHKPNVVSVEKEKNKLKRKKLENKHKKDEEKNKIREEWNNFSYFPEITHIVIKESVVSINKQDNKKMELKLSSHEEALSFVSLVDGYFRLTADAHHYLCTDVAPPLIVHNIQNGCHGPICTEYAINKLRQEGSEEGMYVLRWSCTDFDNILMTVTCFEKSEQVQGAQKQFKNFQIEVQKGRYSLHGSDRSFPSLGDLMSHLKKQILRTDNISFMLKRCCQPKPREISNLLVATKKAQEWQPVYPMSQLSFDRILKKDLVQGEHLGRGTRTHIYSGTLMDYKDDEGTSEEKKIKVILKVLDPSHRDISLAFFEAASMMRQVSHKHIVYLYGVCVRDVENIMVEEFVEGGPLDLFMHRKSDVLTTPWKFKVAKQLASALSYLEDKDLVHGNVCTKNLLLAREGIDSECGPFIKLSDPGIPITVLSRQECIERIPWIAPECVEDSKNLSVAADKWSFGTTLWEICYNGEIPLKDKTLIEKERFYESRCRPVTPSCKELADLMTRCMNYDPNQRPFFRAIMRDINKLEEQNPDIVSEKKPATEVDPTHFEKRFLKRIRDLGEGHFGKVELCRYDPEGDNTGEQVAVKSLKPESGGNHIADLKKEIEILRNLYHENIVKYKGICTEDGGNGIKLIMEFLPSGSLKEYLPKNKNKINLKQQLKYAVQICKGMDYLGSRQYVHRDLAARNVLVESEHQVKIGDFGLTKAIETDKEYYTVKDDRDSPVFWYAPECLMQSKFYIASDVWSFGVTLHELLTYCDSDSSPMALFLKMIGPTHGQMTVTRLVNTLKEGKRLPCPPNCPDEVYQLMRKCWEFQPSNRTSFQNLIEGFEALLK
UniProt P21281, whole entry: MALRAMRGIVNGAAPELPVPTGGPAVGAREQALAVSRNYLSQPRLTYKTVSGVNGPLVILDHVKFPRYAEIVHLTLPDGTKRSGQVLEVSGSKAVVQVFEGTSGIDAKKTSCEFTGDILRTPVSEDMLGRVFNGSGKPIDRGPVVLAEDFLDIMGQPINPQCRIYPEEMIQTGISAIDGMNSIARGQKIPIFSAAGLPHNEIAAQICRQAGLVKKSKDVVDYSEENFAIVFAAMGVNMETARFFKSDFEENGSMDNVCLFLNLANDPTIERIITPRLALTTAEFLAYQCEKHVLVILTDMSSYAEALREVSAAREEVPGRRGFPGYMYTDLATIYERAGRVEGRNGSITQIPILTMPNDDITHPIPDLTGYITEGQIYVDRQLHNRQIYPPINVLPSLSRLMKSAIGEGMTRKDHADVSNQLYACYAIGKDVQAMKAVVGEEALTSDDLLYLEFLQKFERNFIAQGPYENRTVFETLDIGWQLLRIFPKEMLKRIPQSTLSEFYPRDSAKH
UniProt P17174: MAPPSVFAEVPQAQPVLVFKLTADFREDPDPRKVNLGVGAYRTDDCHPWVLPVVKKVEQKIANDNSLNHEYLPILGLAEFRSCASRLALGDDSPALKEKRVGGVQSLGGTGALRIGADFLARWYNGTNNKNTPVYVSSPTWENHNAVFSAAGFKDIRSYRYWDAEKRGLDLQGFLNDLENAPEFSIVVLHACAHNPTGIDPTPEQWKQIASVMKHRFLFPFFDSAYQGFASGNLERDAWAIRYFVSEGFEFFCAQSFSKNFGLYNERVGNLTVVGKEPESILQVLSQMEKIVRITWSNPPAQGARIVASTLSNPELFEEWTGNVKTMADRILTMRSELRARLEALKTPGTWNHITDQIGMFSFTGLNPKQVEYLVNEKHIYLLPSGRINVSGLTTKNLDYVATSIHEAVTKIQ
UniProt P0C7T5: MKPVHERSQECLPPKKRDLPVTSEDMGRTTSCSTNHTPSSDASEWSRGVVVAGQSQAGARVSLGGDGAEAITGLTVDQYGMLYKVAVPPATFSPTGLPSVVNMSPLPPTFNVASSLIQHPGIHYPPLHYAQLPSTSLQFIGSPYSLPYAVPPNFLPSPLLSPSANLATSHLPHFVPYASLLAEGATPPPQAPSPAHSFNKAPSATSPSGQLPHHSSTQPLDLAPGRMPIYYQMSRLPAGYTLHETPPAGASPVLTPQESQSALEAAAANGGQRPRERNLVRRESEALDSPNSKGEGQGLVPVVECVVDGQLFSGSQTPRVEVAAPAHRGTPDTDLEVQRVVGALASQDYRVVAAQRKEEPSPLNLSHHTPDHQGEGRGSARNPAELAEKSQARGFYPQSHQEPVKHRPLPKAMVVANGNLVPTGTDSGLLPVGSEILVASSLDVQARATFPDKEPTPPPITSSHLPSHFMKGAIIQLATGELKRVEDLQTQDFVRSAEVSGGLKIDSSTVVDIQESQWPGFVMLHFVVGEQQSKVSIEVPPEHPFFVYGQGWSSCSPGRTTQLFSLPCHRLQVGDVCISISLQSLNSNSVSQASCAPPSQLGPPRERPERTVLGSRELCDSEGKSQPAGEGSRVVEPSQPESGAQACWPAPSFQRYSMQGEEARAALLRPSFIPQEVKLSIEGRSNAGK
UniProt P13804: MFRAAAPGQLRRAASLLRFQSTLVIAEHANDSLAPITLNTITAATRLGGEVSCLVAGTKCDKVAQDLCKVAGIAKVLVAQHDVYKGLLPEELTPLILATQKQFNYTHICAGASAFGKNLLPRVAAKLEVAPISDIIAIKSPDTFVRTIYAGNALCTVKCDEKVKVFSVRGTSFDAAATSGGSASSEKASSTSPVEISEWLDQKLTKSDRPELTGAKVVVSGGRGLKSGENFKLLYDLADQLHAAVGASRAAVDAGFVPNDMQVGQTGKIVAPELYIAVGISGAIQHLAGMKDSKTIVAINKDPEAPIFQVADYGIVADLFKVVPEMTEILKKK
UniProt P08651, whole entry: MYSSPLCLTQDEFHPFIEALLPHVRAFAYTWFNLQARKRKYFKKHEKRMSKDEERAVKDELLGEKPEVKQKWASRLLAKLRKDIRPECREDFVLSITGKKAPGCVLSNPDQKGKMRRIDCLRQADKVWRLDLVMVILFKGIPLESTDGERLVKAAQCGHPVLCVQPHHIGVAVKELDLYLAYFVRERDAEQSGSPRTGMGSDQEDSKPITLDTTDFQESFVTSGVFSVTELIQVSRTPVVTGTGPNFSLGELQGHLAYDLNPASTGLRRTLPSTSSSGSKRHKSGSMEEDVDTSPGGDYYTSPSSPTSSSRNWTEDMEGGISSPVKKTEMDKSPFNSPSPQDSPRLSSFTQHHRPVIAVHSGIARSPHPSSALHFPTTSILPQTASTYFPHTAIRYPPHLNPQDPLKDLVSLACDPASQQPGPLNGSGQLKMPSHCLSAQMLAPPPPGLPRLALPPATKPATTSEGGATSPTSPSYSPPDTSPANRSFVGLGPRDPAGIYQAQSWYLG
UniProt P09471, whole entry, looked up: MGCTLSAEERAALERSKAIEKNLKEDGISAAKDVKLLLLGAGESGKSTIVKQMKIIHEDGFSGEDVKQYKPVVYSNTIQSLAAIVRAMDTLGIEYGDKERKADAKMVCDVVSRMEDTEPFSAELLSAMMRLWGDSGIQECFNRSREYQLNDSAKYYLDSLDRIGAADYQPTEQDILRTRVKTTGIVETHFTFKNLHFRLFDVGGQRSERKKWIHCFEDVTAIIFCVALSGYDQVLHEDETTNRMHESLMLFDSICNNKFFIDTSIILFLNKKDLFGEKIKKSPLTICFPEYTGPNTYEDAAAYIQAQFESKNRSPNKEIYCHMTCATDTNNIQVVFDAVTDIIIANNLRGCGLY
UniProt P16219: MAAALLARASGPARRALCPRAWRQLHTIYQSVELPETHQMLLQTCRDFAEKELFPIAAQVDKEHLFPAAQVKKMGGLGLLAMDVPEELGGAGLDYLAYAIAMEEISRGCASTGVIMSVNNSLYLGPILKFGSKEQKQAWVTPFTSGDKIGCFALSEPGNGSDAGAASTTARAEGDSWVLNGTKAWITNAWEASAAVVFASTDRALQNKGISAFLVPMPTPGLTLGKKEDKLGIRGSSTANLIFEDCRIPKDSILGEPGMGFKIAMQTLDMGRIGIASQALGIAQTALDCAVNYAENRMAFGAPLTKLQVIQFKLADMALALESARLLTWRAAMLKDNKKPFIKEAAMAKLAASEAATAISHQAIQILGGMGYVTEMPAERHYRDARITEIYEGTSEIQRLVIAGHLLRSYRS
UniProt P21399: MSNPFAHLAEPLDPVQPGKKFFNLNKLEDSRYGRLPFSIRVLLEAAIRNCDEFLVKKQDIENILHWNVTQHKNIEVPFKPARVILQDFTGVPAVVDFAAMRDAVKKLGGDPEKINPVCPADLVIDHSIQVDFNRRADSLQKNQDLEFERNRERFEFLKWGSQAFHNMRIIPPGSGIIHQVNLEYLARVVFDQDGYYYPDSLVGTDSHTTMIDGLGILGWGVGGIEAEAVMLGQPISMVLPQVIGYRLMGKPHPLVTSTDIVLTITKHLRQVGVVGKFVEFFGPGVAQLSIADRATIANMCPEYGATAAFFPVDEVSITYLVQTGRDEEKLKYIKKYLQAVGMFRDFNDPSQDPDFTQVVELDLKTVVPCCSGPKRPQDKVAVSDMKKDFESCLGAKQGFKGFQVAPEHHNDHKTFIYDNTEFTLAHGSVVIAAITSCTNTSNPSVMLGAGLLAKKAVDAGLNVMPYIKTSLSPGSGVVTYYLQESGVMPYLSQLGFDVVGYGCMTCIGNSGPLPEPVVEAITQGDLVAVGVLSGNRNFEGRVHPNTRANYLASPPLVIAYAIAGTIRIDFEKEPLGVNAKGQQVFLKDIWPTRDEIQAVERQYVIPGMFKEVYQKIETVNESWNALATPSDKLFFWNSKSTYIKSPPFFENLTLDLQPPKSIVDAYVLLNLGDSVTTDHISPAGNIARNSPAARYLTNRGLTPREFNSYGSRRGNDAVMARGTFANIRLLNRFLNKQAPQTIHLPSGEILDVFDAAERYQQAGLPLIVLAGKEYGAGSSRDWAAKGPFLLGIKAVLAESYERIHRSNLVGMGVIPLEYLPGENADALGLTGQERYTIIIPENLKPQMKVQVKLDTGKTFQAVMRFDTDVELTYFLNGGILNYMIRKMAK
UniProt P11441: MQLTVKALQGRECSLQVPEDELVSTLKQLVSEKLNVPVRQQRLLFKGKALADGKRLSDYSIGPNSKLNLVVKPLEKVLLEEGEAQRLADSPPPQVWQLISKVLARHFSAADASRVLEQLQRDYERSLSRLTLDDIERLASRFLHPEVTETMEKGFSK
UniProt P11021: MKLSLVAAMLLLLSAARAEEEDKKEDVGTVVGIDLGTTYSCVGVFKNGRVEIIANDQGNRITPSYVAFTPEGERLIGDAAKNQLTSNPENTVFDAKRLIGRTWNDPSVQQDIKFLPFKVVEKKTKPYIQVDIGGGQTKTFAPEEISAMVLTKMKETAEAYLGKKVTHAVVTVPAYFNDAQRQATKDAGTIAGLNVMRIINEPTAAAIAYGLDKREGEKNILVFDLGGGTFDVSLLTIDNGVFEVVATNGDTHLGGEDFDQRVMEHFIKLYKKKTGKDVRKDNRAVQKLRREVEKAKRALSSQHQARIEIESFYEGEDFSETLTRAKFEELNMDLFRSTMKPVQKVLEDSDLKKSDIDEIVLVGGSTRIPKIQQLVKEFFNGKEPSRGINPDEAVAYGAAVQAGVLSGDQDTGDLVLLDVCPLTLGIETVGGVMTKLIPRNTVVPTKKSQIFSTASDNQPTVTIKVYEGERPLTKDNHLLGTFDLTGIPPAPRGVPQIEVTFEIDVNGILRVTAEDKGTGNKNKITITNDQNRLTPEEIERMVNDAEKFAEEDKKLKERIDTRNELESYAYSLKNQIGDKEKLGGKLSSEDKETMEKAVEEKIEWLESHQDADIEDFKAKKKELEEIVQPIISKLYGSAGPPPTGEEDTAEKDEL
UniProt P09543: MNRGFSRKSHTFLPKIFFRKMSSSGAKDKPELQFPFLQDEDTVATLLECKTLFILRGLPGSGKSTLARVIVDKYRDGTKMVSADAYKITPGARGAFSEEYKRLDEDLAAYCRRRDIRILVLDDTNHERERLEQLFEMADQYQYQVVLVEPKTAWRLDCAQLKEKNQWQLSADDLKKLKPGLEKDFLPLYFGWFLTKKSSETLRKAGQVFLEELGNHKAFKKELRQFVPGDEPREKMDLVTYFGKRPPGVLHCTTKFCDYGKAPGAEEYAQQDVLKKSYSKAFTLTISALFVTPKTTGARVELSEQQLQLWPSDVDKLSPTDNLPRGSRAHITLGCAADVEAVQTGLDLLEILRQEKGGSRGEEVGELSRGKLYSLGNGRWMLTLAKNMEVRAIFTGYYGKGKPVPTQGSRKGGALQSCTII

Compound: Nc1nc2c(ncn2[C@@H]2O[C@H](COP(=O)(O)OP(=O)(O)OP(=O)(O)O)[C@@H](O)[C@H]2O)c(=O)[nH]1 [guanosine triphosphate]
Test: NP40-soluble protein abundance relative to vehicle (solubility fold change) (ratio); higher = more soluble protein in presence of GTP
In short: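 Each value is a fold change relative to the detergent-processed vehicle, calculated per replicate from vsn-normalised intensities. Jurkat crude lysate received eight concentrations (0.1 to 10 mM) for 10 min at room temperature and 3 min at 37 °C, then was solubilised in 0.8% NP40 with benzonase (60 min, 4 °C). The ultracentrifuged supernatant was TMT-labelled and run by LC-MS/MS in three independent experiments.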

Target | NP40-soluble protein abundance (concentration: 0.1mM) | NP40-soluble protein abundance (concentration: 0.5mM) | NP40-soluble protein abundance (concentration: 1mM) | NP40-soluble protein abundance (concentration: 2mM) | NP40-soluble protein abundance (concentration: 4mM) | NP40-soluble protein abundance (concentration: 6mM) | NP40-soluble protein abundance (concentration: 8mM) | NP40-soluble protein abundance (concentration: 10mM)
JAK1 (UniProt P23458) | 1.1 ± 0.07 | 1.15 ± 0.078 | 1.14 ± 0.083 | 1.16 ± 0.086 | 1.12 ± 0.1 | 1.14 ± 0.078 | 1.15 ± 0.068 | 1.14 ± 0.044
ATP6V1B2 (UniProt P21281) | 1 ± 0.04 | 1.01 ± 0.04 | 1.01 ± 0.056 | 1 ± 0.043 | 1.02 ± 0.035 | 0.995 ± 0.051 | 1 ± 0.057 | 0.983 ± 0.056
RPS3 (UniProt P23396) | 1.01 ± 0.1 | 1 ± 0.14 | 0.983 ± 0.18 | 0.954 ± 0.23 | 0.879 ± 0.23 | 0.828 ± 0.22 | 0.749 ± 0.17 | 0.782 ± 0.21
GOT1 (UniProt P17174) | 0.969 ± 0.033 | 0.9833 ± 0.0066 | 0.916 ± 0.035 | 0.913 ± 0.038 | 0.878 ± 0.043 | 0.892 ± 0.037 | 0.865 ± 0.044 | 0.876 ± 0.033
UniProt P25398 | 0.866 ± 0.011 | 0.869 ± 0.028 | 0.965 ± 0.091 | 0.903 ± 0.12 | 0.835 ± 0.15 | 0.805 ± 0.19 | 0.725 ± 0.12 | 0.75 ± 0.17
ATXN1L (UniProt P0C7T5) | 0.973 ± 0.13 | 0.911 ± 0.05 | 0.865 ± 0.064 | 0.896 ± 0.11 | 0.928 ± 0.037 | 0.977 ± 0.027 | 0.966 ± 0.1 | 0.882 ± 0.1
UniProt P10586 and related entries | 1.08 ± 0.12 | 1.06 ± 0.12 | 1.13 ± 0.14 | 1.03 ± 0.17 | 1.03 ± 0.2 | 0.993 ± 0.19 | 1.06 ± 0.16 | 1 ± 0.13
ETFA (UniProt P13804) | 0.965 ± 0.026 | 0.949 ± 0.028 | 0.93 ± 0.03 | 0.889 ± 0.038 | 0.886 ± 0.038 | 0.882 ± 0.04 | 0.889 ± 0.027 | 0.87 ± 0.047
UniProt P08651 and related entries | 1.05 ± 0.083 | 1.04 ± 0.05 | 1.08 ± 0.025 | 1.01 ± 0.06 | 1.03 ± 0.043 | 1 ± 0.047 | 1.09 ± 0.055 | 1.04 ± 0.093
UniProt P09471-2 | 1.02 ± 0.11 | 1.05 ± 0.05 | 0.945 ± 0.13 | 1.01 ± 0.085 | 0.9 ± 0.047 | 0.973 ± 0.035 | 0.883 ± 0.12 | 0.914 ± 0.066
ACADS (UniProt P16219) | 1.05 ± 0.036 | 1.06 ± 0.047 | 1.02 ± 0.019 | 0.993 ± 0.011 | 1.02 ± 0.045 | 0.961 ± 0.035 | 0.964 ± 0.044 | 0.918 ± 0.054
ACO1 (UniProt P21399) | 1.026 ± 0.0069 | 1.01 ± 0.015 | 0.929 ± 0.013 | 0.923 ± 0.02 | 0.928 ± 0.04 | 0.881 ± 0.034 | 0.889 ± 0.046 | 0.855 ± 0.077
UBL4A (UniProt P11441) | 0.881 ± 0.072 | 0.855 ± 0.082 | 1.02 ± 0.13 | 1.08 ± 0.1 | 1.06 ± 0.13 | 1.06 ± 0.091 | 1.02 ± 0.091 | 1.11 ± 0.15
HSPA5 (UniProt P11021) | 0.914 ± 0.091 | 0.952 ± 0.088 | 0.937 ± 0.088 | 0.896 ± 0.11 | 0.877 ± 0.093 | 0.916 ± 0.089 | 0.924 ± 0.079 | 0.921 ± 0.092
UniProt P09543 and related entries | 1.06 ± 0.042 | 1.1 ± 0.087 | 1.04 ± 0.051 | 1.02 ± 0.051 | 1.01 ± 0.02 | 0.992 ± 0.044 | 0.963 ± 0.018 | 0.921 ± 0.051

A stretch taken from the entries so far:
Target | NP40-soluble protein abundance (concentration: 0.1mM) | NP40-soluble protein abundance (concentration: 0.5mM) | NP40-soluble protein abundance (concentration: 1mM) | NP40-soluble protein abundance (concentration: 2mM) | NP40-soluble protein abundance (concentration: 4mM) | NP40-soluble protein abundance (concentration: 6mM) | NP40-soluble protein abundance (concentration: 8mM) | NP40-soluble protein abundance (concentration: 10mM)
ACADS (UniProt P16219) | 1.05 ± 0.036 | 1.06 ± 0.047 | 1.02 ± 0.019 | 0.993 ± 0.011 | 1.02 ± 0.045 | 0.961 ± 0.035 | 0.964 ± 0.044 | 0.918 ± 0.054
ACO1 (UniProt P21399) | 1.026 ± 0.0069 | 1.01 ± 0.015 | 0.929 ± 0.013 | 0.923 ± 0.02 | 0.928 ± 0.04 | 0.881 ± 0.034 | 0.889 ± 0.046 | 0.855 ± 0.077
UBL4A (UniProt P11441) | 0.881 ± 0.072 | 0.855 ± 0.082 | 1.02 ± 0.13 | 1.08 ± 0.1 | 1.06 ± 0.13 | 1.06 ± 0.091 | 1.02 ± 0.091 | 1.11 ± 0.15
